Patent US20250297029A1 (NANJING LEGEND BIOTECH, published 2025)
Positions count from the first letter of the chain named. These are yes or no findings as the source states them, for the method shown. Some binding calls cover weakened binding; strength is not graded here.

Sequences of proteins named here, by UniProt entry; tags and fusion partners are left off. Residues count along the entry.
UniProt P51654, residues 25-559: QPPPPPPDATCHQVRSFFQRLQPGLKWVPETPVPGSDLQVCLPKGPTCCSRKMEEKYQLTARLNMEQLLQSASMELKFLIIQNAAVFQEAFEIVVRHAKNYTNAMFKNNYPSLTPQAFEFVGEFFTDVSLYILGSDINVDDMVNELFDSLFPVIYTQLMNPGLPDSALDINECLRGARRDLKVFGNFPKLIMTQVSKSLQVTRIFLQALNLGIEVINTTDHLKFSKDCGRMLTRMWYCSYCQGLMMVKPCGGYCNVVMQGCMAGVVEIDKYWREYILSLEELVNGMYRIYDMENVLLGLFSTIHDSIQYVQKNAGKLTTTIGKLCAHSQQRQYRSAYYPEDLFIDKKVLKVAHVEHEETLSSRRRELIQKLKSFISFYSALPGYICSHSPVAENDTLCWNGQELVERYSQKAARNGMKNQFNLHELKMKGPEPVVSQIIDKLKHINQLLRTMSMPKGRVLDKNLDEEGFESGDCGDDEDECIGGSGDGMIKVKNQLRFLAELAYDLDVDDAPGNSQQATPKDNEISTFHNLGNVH

B1: VL1.M2-VH2.M6 humanized scFv (scFv, not shown: a dimerising Fc or GST)
scFv: DIVMTQTPLSLSVTPGQPASISCRSSQSLVHSNGNTYLHWYLQKPGQSPQLLIYKVSSRFSGVPDRFSGSGSGTDFTLKISRVEAEDVGVYYCSQNTHVPPTFGQGTKVEIKGGGGSGGGGSGGGGSQVQLVQSGAEVKKPGASVKVSCKASGYTFTSYEMHWVRQAPGQGLEWMGALDPKTGDTAYSQKFQGRVTLTADTSTSTVYMELSSLRSEDTAVYYCTRFYSYTYWGQGTLVTVSS
notes: Crude scFv with Fc tag from HEK293 supernatant
B2: VL1-VH2 humanized scFv (scFv, not shown: a dimerising Fc or GST)
scFv: B1 scFv with S58N, S158D, Q192K
notes: as for B1
B3: VL1-VH2.M1 humanized scFv (scFv, not shown: a dimerising Fc or GST)
scFv: B1 scFv with S58N, Q192K
notes: as for B1
B4: VL1-VH2.M5 humanized scFv (scFv, not shown: a dimerising Fc or GST)
scFv: B1 scFv with S58N, S158D
notes: as for B1
B5: VL1-VH2.M6 humanized scFv (scFv, not shown: a dimerising Fc or GST)
scFv: B1 scFv with S58N
notes: as for B1
B6: VL1.M2-VH2 humanized scFv (scFv, not shown: a dimerising Fc or GST)
scFv: B1 scFv with S158D, Q192K
notes: as for B1
B7: VL1.M2-VH2.M1 humanized scFv (scFv, not shown: a dimerising Fc or GST)
scFv: B1 scFv with Q192K
notes: as for B1
B8: VL1.M2-VH2.M5 humanized scFv (scFv, not shown: a dimerising Fc or GST)
scFv: B1 scFv with S158D
notes: as for B1
B9: VL1.M2-VH2.M8 humanized scFv (scFv, not shown: a dimerising Fc or GST)
scFv: B1 scFv with K181S
B10: VL1.M2-VH2.M9 humanized scFv (scFv, not shown: a dimerising Fc or GST)
scFv: B1 scFv with T182G
B11: VL1.M2-VH2.M10 humanized scFv (scFv, not shown: a dimerising Fc or GST)
scFv: B1 scFv with K181S, T182G
B12: VL1.M2-VH2.M11 humanized scFv (scFv, not shown: a dimerising Fc or GST)
scFv: B1 scFv with D184S
B13: VL1.M3-VH2.M6 humanized scFv (scFv, not shown: a dimerising Fc or GST)
scFv: B1 scFv with N35K
B14: VL1.M6-VH2.M6 humanized scFv (scFv, not shown: a dimerising Fc or GST)
scFv: B1 scFv with S94M
B15: VL1.M7-VH2.M6 humanized scFv (scFv, not shown: a dimerising Fc or GST)
scFv: B1 scFv with N96G
B16: VL1.M8-VH2.M6 humanized scFv (scFv, not shown: a dimerising Fc or GST)
scFv: B1 scFv with V99W

target: T1, GPC3 (UniProt P51654 25-559, limits assumed); assay: SPR (Biacore T200); scFv-Fc captured by anti-human Fc pAb, GPC3 in flow
T1 construct: also called antigen GPC3; Glypican 3

binding, binds:
B1
B2
B3
B4
B5
B6
B7
B8

target: T1, GPC3; assay: SPR as in Example 1

binding, binds:
B9
B10
B11
B12
B13
B14
B15
B16
